Measurements published in US20250092109A1.
Numbering of substitutions follows the chain as printed. Results are given in words; binding and its absence hold for the method and conditions named. Some entries that bind do so weakly or less than the wild type.

The chains behind the UniProt entries cited, without tags or fusion partners. Residues count along the entry.
UniProt P60568, residues 21-153: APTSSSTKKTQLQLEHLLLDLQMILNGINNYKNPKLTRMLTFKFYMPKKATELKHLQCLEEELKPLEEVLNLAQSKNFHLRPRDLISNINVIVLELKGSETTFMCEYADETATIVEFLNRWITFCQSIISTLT

B1: VHH1 (VHH)
VHH: EVQLVESGGGLVQPGGSLRLSCAASGSIFSINVMGWYRQAPGKQRELVAAISSGGSTNYADSVKGRFTISRDNAKNTVYLQMNSLKPEDTAVYYCMYASSWYEDETDYWGQGTQVTVSS
B2: VHH2 (VHH)
VHH: B1 VHH with A60P
B3: VHH3 (VHH)
VHH: B1 VHH with W101F
B4: VHH4 (VHH)
VHH: B1 VHH with W101Y
B5: VHH34 (VHH)
VHH: EVQLVESGGGLVQPGGSLRLSCAASGLTFGSYAMGWYRQAPGKGLEWVSAISSGGSTNYADSVKGRFTISRDNAKNTVYLQMNSLKPEDTAVYYCAYASSFYEDETDYWGQGTQVTVSS
B6: VHH39 (VHH)
VHH: B5 VHH with F101Y
B7: VHH33 (VHH)
VHH: B1 VHH with N32Y, Q44G, M96A, W101F
B8: VHH42 (VHH)
VHH: B1 VHH with M96A, W101Y, W109R, Q114L
B9: VHH23 (VHH)
VHH: B1 VHH with N32Y, M96A, W101F
B10: VHH29 (VHH)
VHH: B5 VHH with G44Q, L45R, W47L, S49A, F101Y
B11: VHH11 (VHH)
VHH: B5 VHH with L27S, T28I, G30S, S31I, Y32N, A33V
B12: VHH20 (VHH)
VHH: B1 VHH with N58Y, A60P, M96A, W101F
B13: VHH37 (VHH)
VHH: B1 VHH with V33A, Q44G, R45L, M96A, W101Y
B14: VHH30 (VHH)
VHH: B1 VHH with Q44G, N58Y, A60P, M96A, W101F
B15: VHH22 (VHH)
VHH: B1 VHH with V33A, M96A, W101F
B16: VHH32 (VHH)
VHH: B1 VHH with V33A, Q44G, R45L, M96A, W101F
B17: VHH19 (VHH)
VHH: B5 VHH with G44Q, L45R, W47L, S49A, F101W
B18: VHH27 (VHH)
VHH: B1 VHH with V33A, M96A, W101Y
B19: VHH35 (VHH)
VHH: B1 VHH with Q44G, N58Y, A60P, M96A, W101Y
B20: VHH14 (VHH)
VHH: B1 VHH with Q44G, R45L, L47W, A49S, M96A, W101Y
B21: VHH41 (VHH)
VHH: B1 VHH with M96A, W101F, W109R, Q114L
B22: VHH25 (VHH)
VHH: B1 VHH with N58Y, A60P, M96A, W101Y
B23: VHH28 (VHH)
VHH: B1 VHH with N32Y, M96A, W101Y
B24: VHH31 (VHH)
VHH: B1 VHH with I31S, Q44G, R45L, M96A, W101F
B25: VHH21 (VHH)
VHH: B1 VHH with I31S, M96A, W101F
B26: VHH5 (VHH)
VHH: B1 VHH with M96A
B27: VHH40 (VHH)
VHH: B1 VHH with W109R, Q114L
B28: VHH13 (VHH)
VHH: B1 VHH with Q44G, R45L, M96A, W101Y
B29: VHH8 (VHH)
VHH: B1 VHH with Q44G, R45L, L47W, A49S
B30: VHH10 (VHH)
VHH: B1 VHH with Q44G, R45L, M96A, W101F
B31: VHH17 (VHH)
VHH: B1 VHH with V33A, M96A
B32: VHH38 (VHH)
VHH: B1 VHH with N32Y, Q44G, M96A, W101Y
B33: VHH15 (VHH)
VHH: B1 VHH with N58Y, M96A
B34: VHH18 (VHH)
VHH: B1 VHH with N32Y, M96A

target: IL-2 (UniProt P60568); assay: SPR, kinetic Group 1

binding	Binder
binds	B1
binds	B2
binds	B3
binds	B4

target: IL-2 (UniProt P60568); assay: SPR, kinetic Group 4

binding	Binder
binds	B5
binds	B6
binds	B7
binds	B8
binds	B9
binds	B10
binds	B11
binds	B12
binds	B13
binds	B14
binds	B15
binds	B16
binds	B17
binds	B18
binds	B19
binds	B20
binds	B21
binds	B22
binds	B23

target: IL-2 (UniProt P60568); assay: SPR, kinetic Group 2

binding	Binder
binds	B24
binds	B25
binds	B26
binds	B27

target: IL-2 (UniProt P60568); assay: SPR, kinetic Group 3

binding	Binder
binds	B28
binds	B29
binds	B30
binds	B31
binds	B32
binds	B33
binds	B34
